Laboratory results as given in article PMC13241479.
No constants are given. Whether binding was seen depends on the method and setting. Binding seen in cells or lysates may run through a third protein. These calls come from enrichment with a bait or labelling near it, and not all partners need be listed. Where a sequence is shown, tags or fusion partners need not be part of it.

T1: His-ALFA-SAA1-N terminus (human SAA1 19-94 aa) (human) (UniProt P0DJI8)
T1 sequence: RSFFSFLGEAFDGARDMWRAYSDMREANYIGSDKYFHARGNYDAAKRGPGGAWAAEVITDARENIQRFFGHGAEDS


molecular target: T1, His-ALFA-SAA1-N terminus (human SAA1 19-94 aa) (human); test: affinity purification with mass spectrometry; ALFA-SAA1 (8 μM, urea-denatured stock) added to 50% bovine plasma in PBS, 16 h at 4°C; cleared at 20,000g; ALFA-nanobody beads 1 h at 4°C; washed four times with PBS; LC-MS/MS; only the target purified

| Binder | binding |
| --- | --- |
| GPLD1 (bovine plasma) (enzyme, UniProt P80109 24-839) CGISTHIEIGHRALEFLHLQDGSINYKELLLRHQDAYQAGSVFPDSFYPSICERGQFHDVSESTHWTPFLNASVHYIRKNYPLPWDEDTEKLVAFLFGITSHMVADVNWHSLGIEQGFLRTMAAIDFHNSYPEAHPAGDFGGDVLSQFEFKFNYLSRHWYVPAEDLLGIYRELYGRIVITKKAIVDCSYLQFLEMYAEMLAISKLYPTYSVKSPFLVEQFQEYFLGGLEDMAFWSTNIYHLTSYMLKNGTSNCNLPENPLFITCGGQQNNTHGSKVQKNGFHKNVTAALTKNIGKHINYTKRGVFFSVDSWTMDSLSFMYKSLERSIREMFIGSSQPLTHVSSPAASYYLSFPYTRLGWAMTSADLNQDGYGDLVVGAPGYSHPGRIHVGRVYLIYGNDLGLPRIDLDLDKEAHGILEGFQPSGRFGSAVAVLDFNVDGVPDLAVGAPSVGSEKLTYTGAVYVYFGSKQGQLSSSPNVTISCQDTYCNLGWTLLAADVNGDSEPDLVIGSPFAPGGGKQKGIVAAFYSGSSYSSREKLNVEAANWMVKGEEDFAWLGYSLHGVNVNNRTLLLAGSPTWKDTSSQGHLFRTRDEKQSPGRVYGYFPPICQSWFTISGDKAMGKLGTSLSSGHVMVNGTRTQVLLVGAPTQDVVSKVSFLTMTLHQGGSTRMYELTPDSQPSLLSTFSGNRRFSRFGGVLHLSDLDNDGLDEIIVAAPLRITDATAGLMGEEDGRVYVFNGKQITVGDVTGKCKSWVTPCPEEKAQYVLISPEAGSRFGSSVITVRSKEKNQVIIAAGRSSLGARLSGVLHIYRLGQD | binds |
| PLA2G7 (bovine plasma) (protein, UniProt Q28017 22-444) FDWQDLNPVAYIESPAWVSKIQALMAAANIGQSKIPRGNGSYSVGCTDLMFDYTNKGTFLRLYYPSQDDDHSDTLWIPNKEYFLGLSKFLGTHWLVGKIMGLFFGSMTTPAAWNAHLRTGEKYPLIIFSHGLGAFRTIYSAIGIDLASHGFIVAAVEHRDGSASSTYYFKDQSAVEIGNKSWLYLRTLKRGEEEFPLRNEQLRQRAKECSQALSLILDIDHGRPVTNVLDLEFDVEQLKDSIDRDKIAIIGHSFGGATVIQTLSEDQRFRCGIALDAWMFPVGDEVYSRIPQPLFFINSERFQYPSNIIRMKKCFLPDRERKMITIRGSVHQNFVDFTFATSKIIGYLFTLKGDIDSNVAISLSNKASLAFLQKHLGLQKDFDQWDSLVEGEDHNLIPGTNINTTNHQAILQNSTGIERPNLD | binds |
| APOD (bovine plasma) (protein, UniProt Q32KY0 21-189) QAFHLGKCPHPPVQENFDVNKYLGKWYEIEKIPVSFEKGSCIQANYSLKENGNVEVINKELRADGTVNQIEGEATPENITEPAKLAVKFFWFMPSAPYWVLATDYENYALVYSCTTIIWLFHMDHVWILGRNPYLPPETVTYLKDILTSNNIEVEKMTITDQVNCPESM | binds |

Second part, the binder after the results:

| binding | Binder |
| --- | --- |
| binds | SPP2 (bovine plasma) (protein, UniProt Q27967 24-203) FPVYDYDPASLKEALSASVAKVNSQSLSPYLFRAFRSSVKRVNALDEDSLTMDLEFRIQETTCRRESEADPATCDFQRGYHVPVAVCRSTVRMSAEQVQNVWVRCHWSSSSGSSSSEEMFFGDILGSSTSRNSYLLGLTPDRSRGEPLYEPSREMRRNFPLGNRRYSNPWPRARVNPGFE |
| binds | apolipoprotein E (bovine plasma) (protein, UniProt Q03247 19-316) DMEGELGPEEPLTTQQPRGKDSQPWEQALGRFWDYLRWVQTLSDQVQEELLNTQVIQELTALMEETMKEVKAYKEELEGQLGPMAQETQARVSKELQAAQARLGSDMEDLRNRLAQYRSEVQAMLGQSTEELRARMASHLRKLPKRLLRDADDLKKRLAVYQAGASEGAERSLSAIRERFGPLVEQGQSRAATLSTLAGQPLLERAEAWRQKLHGRLEEVGVRAQDRLDKIRQQLEEVHAKVEEQGNQMRLQAEAFQARLRSWFEPLVEDMQRQWAGLVEKVQLALRPSPTSPPSENH |
| binds | SERPINF2 (bovine plasma) (protein, UniProt P28800 41-492) AQQKLPPLSLLKLDNQEPGGQIAPKKAPEDCKLSPTPEQTRRLARAMMTFTTDLFSLVAQSSTRPNLILSPLSVALALSHLALGAQNQTLQRLKEVLHADSGPCLPHLLSRLCQDLGPGAFRLAARMYLQKGFPIKEDFLEQSEQLFGAKPMSLTGMKGEDLANINRWVKEATEGKIEDFLSDLPDDTVLLLLNAIHFQGFWRSKFDPNLTQRGAFHLDEQFTVPVDMMQALTYPLHWFLLEQPEIQVAHFPFKNNMSFVVLMPTRFEWNASQVLANLTWDILHQPSLSERPTKVQLPKLHLKYQLDLVATLSQLGLQELFQAPDLRGISDERLVVSSVQHQSALELSEAGVQAAAATSTAMSRMSLSSFIVNRPFLFFILEDSTSLPLFVGSVRNPNPGAQPERKEQQDSPDGKDSFQDHKGLPRGDKPFDPDLKLGPPSEEDYAQPSSPK |
